# PubChem BioAssay AID504467 (National Center for Advancing Translational Sciences (NCATS), 2011)
# The whole screen tested about 330,000 compounds, of which about 7,700 (2.3%) were called active. Inconclusive results, whose numbers are uncertain, are shown with a selection of clear calls. The call rests on the fitted dose curve; in most records, active means well fitted inhibition curve with a large enough effect; inconclusive means small, poorly fitted or top-dose-only effect, or effect the other way; inactive means flat fitted curve, though single readings scatter. Potencies beside an inconclusive call are fits to weak or partial responses and may not hold up.
# Assay: qHTS screen for small molecules that inhibit ELG1-dependent DNA repair in human embryonic kidney (HEK293T) cells expressing luciferase-tagged ELG1; further: nearly all actives have a fitted effect of over 55% in size
# Conditions: HEK293T ELG1-luciferase reporter, luminescence, 16 h, DNA damage induced by 5-fluorouridine; activity change, negative = inhibition: at 46.1 µM (top of the series)
# In short: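 Luminescence from the luciferase reporter, measured 30 min after ONE-Glo reagent at room temperature, was the read-out. Beforehand, 2,000 cells per well were exposed for 16 hr at 37 °C to 5-fluorouridine together with compound or vehicle.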
# On the % scale 0 is the no-effect control and ±100 the full control effect; potency means the concentration at half of the fitted maximal effect.
Structure (SMILES),"activity change, negative = inhibition",Potency
CN(C(=O)CSc1nccc(=O)[nH]1)C1CCCCC1,inactive: 0.364%,–
O=[N+]([O-])c1ccc(-[n+]2ccc3ccccc3c2)c([N+](=O)[O-])c1,–,"inconclusive: 28.2 µM [inhibitor, single point]"
O=C(/C=C/c1ccco1)NC(=S)Nc1ccc(Cl)cn1,–,"inconclusive: 18.4 µM [activator, single point]"
Cc1ccc(C(=O)N/N=C/c2ccc(-c3cccc(Cl)c3)o2)cn1,–,"inconclusive: 36.6 µM [inhibitor, single point]"
O=C1CCCN1C(=O)COc1ccccc1[N+](=O)[O-],inactive: -2.5%,–
Cc1ccc(-c2noc(-c3cccs3)n2)cc1,–,"inconclusive: 0.58 µM [activator, partial curve]"
Cc1nc2cc3nc(C)sc3cc2s1,–,"inconclusive: 20.6 µM [activator, partial curve]"
O=C(CCC(=O)c1cccs1)NCCc1ccc(F)cc1,inactive: 0.0967%,–
Cc1ccc(NC(=O)CCNC(=O)Cn2ccc3ccccc3c2=O)cc1F,inactive: 26.5%,–
N=c1c2c(-c3ccccc3)c(-c3ccccc3)n(Cc3ccccc3)c2ncn1CCO,inactive: 11.6%,–
CCOC(=O)c1c(-c2cccs2)csc1NC(=O)COC(=O)c1c(C)noc1C,–,"inconclusive: 25.9 µM [inhibitor, partial curve, poor fit]"
CCOc1ccccc1NC(=O)C1CCCCN1S(=O)(=O)c1ccccc1 (stereo not given),–,active: 20.6 µM
NS(=O)(=O)c1cccc(NC(=O)c2cc3ccccc3o2)c1,–,"inconclusive: 9.2 µM [activator, partial curve]"
O=C(Nc1ccccc1)C(=O)Nc1cccnc1,–,"inconclusive: 1.83 µM [activator, full curve]"
CCc1cccc2c(C(=O)COC(=O)c3ccccc3)c[nH]c12,–,"inconclusive: 14.6 µM [activator, partial curve]"
COc1ccccc1OCc1ccc(C(=O)OCC2CCCO2)o1 (stereo not given),–,"inconclusive: 23.1 µM [activator, single point]"
CCOC(=O)N1CCN(C(=O)CN(C2CCCCC2)S(=O)(=O)c2c(C)cc(C)cc2C)CC1,inactive: -4.43%,–
Cc1ccc(CN2CCN(c3cccc4[nH]ccc34)CC2)cc1,inactive: 0.19%,–
Cc1ccc(CN2C(=O)c3ccccc3NC2c2cc(Br)ccc2O)cc1 (stereo not given),inactive: -15.6%,–
Cc1noc(C)c1COc1ccc(C(=O)OCC(=O)NCc2ccccc2Cl)cc1,inactive: -3.46%,–
CC(Sc1nc2cc([N+](=O)[O-])ccc2n1-c1ccc(F)cc1)C(=O)NCc1ccc2c(c1)OCO2 (stereo not given),–,"inconclusive: 16.4 µM [inhibitor, partial curve, poor fit]"
Fc1ccc(-c2cc3nc(-c4ccccc4)cc(N4CCN(CCN5CCOCC5)CC4)n3n2)cc1,–,"inconclusive: 29.1 µM [inhibitor, single point]"
COc1ccc(N=Cc2oc3ccc4ccccc4c3c2O)cc1,–,"inconclusive: 23.1 µM [activator, partial curve, poor fit]"
CC(C)(C)OC(=O)N[C@H](C(=O)OC(C)(C)C)c1ccc(Br)cc1,–,"inconclusive: 7.3 µM [activator, partial curve, poor fit]"

# Fetched by structure from the entries so far:
Structure (SMILES),"activity change, negative = inhibition",Potency
O=C(CCC(=O)c1cccs1)NCCc1ccc(F)cc1,inactive: 0.0967%,–
CCc1cccc2c(C(=O)COC(=O)c3ccccc3)c[nH]c12,–,"inconclusive: 14.6 µM [activator, partial curve]"
O=C(Nc1ccccc1)C(=O)Nc1cccnc1,–,"inconclusive: 1.83 µM [activator, full curve]"

# Following part.

Structure (SMILES),"activity change, negative = inhibition",Potency
COc1cc(OC)cc(C(=O)N[C@H](C(=O)Nc2c(C)n(C)n(-c3ccccc3)c2=O)C(C)C)c1,inactive: -2.91%,–
O=C(Nc1ccc(F)cc1)c1ccc(S(=O)(=O)NCc2cccnc2)cc1,–,"inconclusive: 16.4 µM [inhibitor, single point]"
CCc1nc(Cl)c(C#N)c2c1CCCC2,–,active: 13 µM
O=C(c1ccc(S(=O)(=O)N2CCOCC2)cc1)N1CCN=C1SCc1cccnc1,–,"inconclusive: 23.1 µM [inhibitor, single point]"
Cc1cccc(NC(=O)Cn2cnc3sc(C)c(S(=O)(=O)N4CCC(C)CC4)c3c2=O)n1,–,"inconclusive: 18.4 µM [inhibitor, single point]"
Cc1ccccc1OCC(=O)OCC(=O)NCc1ccco1,inactive: 10.9%,–
O=C(Nc1ccccc1C(F)(F)F)c1cc2ncc(CCCl)cn2n1,–,"inconclusive: 18.4 µM [activator, single point]"
O=C(Nc1ccc(Cl)cc1)Nc1nnc(CSc2ccc(Cl)cc2)s1,inactive: 3.46%,–
Cc1nc2ccccn2c1C(=O)N/N=C/c1cc(C)n(-c2ccc(Cl)cc2)c1C,–,"inconclusive: 16.4 µM [inhibitor, partial curve]"
Cc1cc(=O)oc2cc(OCC3CC(c4ccc(Cl)cc4)=NO3)ccc12 (stereo not given),–,"inconclusive: 23.1 µM [inhibitor, single point]"
Cc1nc2cc(-c3cccc(F)c3)nn2c(N2CCN(C(=O)c3ccco3)CC2)c1C,–,active: 16.4 µM
CC(C)(C)OC(=O)NCc1n[nH]c(=S)n1C1CC1,–,"inconclusive: 0.206 µM [inhibitor, single point]"
CCOC(=O)c1ccc(NC(=S)N(CCCN2CCCC(C)C2)Cc2cccs2)cc1 (stereo not given),–,"inconclusive: 23.1 µM [inhibitor, single point]"
Cc1cc(C)nc(NC(=O)/C=C/c2ccc(Cl)cc2Cl)c1,–,"inconclusive: 13 µM [activator, partial curve]"
O=C(O)CN1C(=O)/C(=C/c2ccsc2)SC1=S,inactive: -1.02%,–
S=C(NCCSCc1c(Cl)cccc1Cl)Nc1ccccc1,inactive: -25.4%,–
CCn1nc(C(=O)N2CCN(Cc3nc4ccccc4s3)CC2)c2ccccc2c1=O,–,"inconclusive: 9.2 µM [inhibitor, partial curve, poor fit]"
Cc1ccccc1NS(=O)(=O)c1ccc(NC(=O)c2ccco2)cc1,–,"inconclusive: 18.4 µM [inhibitor, single point]"
CCCCCCc1nc(C(N)=O)c2[nH]c(=O)n(-c3ccc(OC)cc3OC)c2n1,–,"inconclusive: 29.1 µM [inhibitor, single point]"
Cc1cc(C)nc(N2CCCC(C(=O)Nc3nc4ccc(S(C)(=O)=O)cc4s3)C2)n1 (stereo not given),–,active: 16.4 µM
O=[N+]([O-])c1ccc(N2CCN(S(=O)(=O)c3ccc4ccccc4c3)CC2)cc1NCc1ccco1,–,"inconclusive: 11.6 µM [activator, partial curve, poor fit]"
COc1ccc(NC(=O)c2sc3ncn(CC(=O)N4CCN(c5ccccn5)CC4)c(=O)c3c2C)c(OC)c1,–,"inconclusive: 29.1 µM [activator, partial curve, poor fit]"
O=C(CCCCl)NC(=S)Nc1ccc(N2CCOCC2)cc1,–,"inconclusive: 7.3 µM [activator, partial curve]"
COc1cc(/C=C(\C#N)c2nc3c(s2)CC(C)CC3)ccc1O (stereo not given),–,"inconclusive: 15.8 µM [activator, partial curve, poor fit]"

Structure (SMILES),"activity change, negative = inhibition",Potency
Cc1nn2cc(-c3ccc(N)cc3)nc2s1,–,"inconclusive: 5.8 µM [activator, partial curve]"
Cc1ccc2[nH]c(=O)c(CN(CCN3CCOCC3)C(=O)Nc3ccccc3F)cc2c1,–,active: 16.4 µM
CNc1nc(-c2ccc3c(c2)CCN3C(=O)c2ccccc2C)cs1,–,"inconclusive: 9.2 µM [activator, partial curve]"
N#CC1=C(N)Oc2cc(N)ccc2C1c1ccc(F)cc1 (stereo not given),–,"inconclusive: 18.4 µM [inhibitor, single point]"
CC(=O)Nc1ccc(S(=O)(=O)NC2CC(=O)N(c3cccc(F)c3)C2)cc1 (stereo not given),inactive: 6.36%,–
COc1ccc(CC(=O)c2ccc(OC)c(OC)c2C)cc1OC,inactive: 1.73%,–
CC(C)(C)N(CC#CCC1(O)c2ccccc2-c2ccccc21)CCO,–,"inconclusive: 6.51 µM [inhibitor, single point]"
Cc1cccc(Nc2nnc(SCC(=O)c3c(N)n(C4CC4)c(=O)[nH]c3=O)s2)c1C,–,"inconclusive: 32.6 µM [inhibitor, single point]"
CC(Sc1ncn[nH]1)C(=O)Nc1cc(C(F)(F)F)ccc1Cl (stereo not given),inactive: 7.94%,–
CN1CCN(NC(=S)Nc2ccc(OC(F)F)cc2)CC1,–,"inconclusive: 0.206 µM [activator, partial curve, poor fit]"
CCC(Sc1nc(-c2ccccc2)c(-c2ccccc2)[nH]1)C(=O)O (stereo not given),inactive: 8.1%,–
CN(CCc1ccccc1)C(=O)c1cc(COc2ccc(F)cc2Cl)on1,–,"inconclusive: 13 µM [activator, partial curve]"
COCCn1c(C)cc(C2=NNC(=NC(C)(C)C)SC2)c1C,–,"inconclusive: 29.1 µM [activator, single point]"
CC1(C)CC(=O)c2sc(NC(=O)CCS(=O)(=O)c3ccccc3)nc2C1,–,"inconclusive: 29.1 µM [inhibitor, single point]"
O=C(Nc1ccnn1C1CCN(Cc2cccc(O)c2)CC1)C1CCCC1,inactive: 11%,–
CCc1nonc1NC(=O)c1oc2ccc(Cl)cc2c1C,–,"inconclusive: 10.3 µM [activator, partial curve]"
Cn1c(=O)c(Nc2ccc(O)cc2)c2c3c(cccc31)C(=O)c1ccccc1-2,–,"inconclusive: 29.1 µM [inhibitor, single point]"
Cc1ccc(CONC(=O)c2ccccc2Cl)cc1,–,"inconclusive: 13 µM [activator, partial curve]"
COc1ccc2cc(C(=O)C3CCCN(C(=O)c4snnc4C)C3)ccc2c1 (stereo not given),–,"inconclusive: 18.3 µM [inhibitor, single point]"
CC(C)C(NS(=O)(=O)c1ccccc1)C(=O)N1CCCC1 (stereo not given),inactive: 2.19%,–
CN(C)S(=O)(=O)c1ccc(C(=O)Nc2nnc(SCc3ccccc3)s2)cc1,inactive: 4.28%,–
CC[C@]12c3[nH]c4cc(CCC(=O)N(C)C)ccc4c3CCN1C(=O)[C@@H](CC(=O)NCc1ccco1)C[C@@H]2C(=O)N1CCN(C(=O)c2ccco2)CC1,–,"inconclusive: 29.1 µM [activator, partial curve, poor fit]"
